# Measured values from PubChem BioAssay AID1487 (National Center for Advancing Translational Sciences (NCATS), 2009).
# Several values for one entry are separate records, joined by “and”; a condition that tells them apart may be missing. Identical values can stand only once. This is one part of the list. The main result of the screen is listed elsewhere. These columns were measured beside it and carry no call. Compounds called inactive in the main read-out are mostly missing here. Words in brackets tell the shape of the fitted curve; partial curves, single points and poor fits give uncertain potencies.
# Assay: qHTS Assay for Modulators of Lamin A Splicing
# Conditions: HeLa LMNA splicing GFP/RFP minigene ratio, 48 h
# How it was run: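 S3 HeLa cells stably expressing lamin A-EGFP splicing minigene plus DsRed2, 600 cells/well, 48 h compound exposure at 37C. Laser-scanning cytometry; analysed as GFP (500-530 nm)/RFP (575-640 nm) total intensity ratio; 0.5% DMSO vehicle.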
# [1] = measured here: GFP splicing reporter channel
# [2] = measured here: RFP viability control channel
smiles,measurement,setting,value
Cc1nc2ccccc2n1CCc1nc2c3ccccc3nc(SCC(=O)Nc3cccc(C(F)(F)F)c3)n2n1,AC50,[1],"10 µM [falling, partial curve]"
same,AC50,[2],"10 µM [falling, single point]"
COC(=O)c1c(NC(NC(=O)c2ccccc2)(C(F)(F)F)C(F)(F)F)sc2c1CCN(C)C2,AC50,[2],"31.6 µM [rising, single point]"
Cc1nc(Nc2ccc(Cl)c(Cl)c2)sc1C(=O)Nc1ccccc1,AC50,[1],"14.1 µM [rising, single point]"
same,AC50,[2],"25.1 µM [rising, single point]"
COc1cccc(CC(=S)N2CCOCC2)c1,AC50,[1],"2.82 µM [falling, partial curve]"
CCOC(=O)c1cnc2c(OC)cccc2c1N1CCN(c2ccccc2OC)CC1,AC50,[2],"15.8 µM [rising, single point]"
CCCc1nc2ccccc2c(=O)n1/N=C/c1ccc(O)cc1O,AC50,[1],"12.6 µM [rising, partial curve, poor fit]"
same,AC50,[2],"25.1 µM [rising, single point]"
Cc1ccc2nc(-c3ccc(NC(=O)COC(=O)c4ccco4)cc3)sc2c1,AC50,[1],"11.2 µM [rising, single point]"
same,AC50,[2],"14.1 µM [rising, single point]"
CC(CCCC(C)(C)O)NC(=O)c1ccc(OC2CCN(C(=O)C3CC3)CC2)cc1 (stereo not drawn),AC50,[2],"0.251 µM [falling, full curve, poor fit]"
COC(=O)/C=C\C(=O)Nc1cccc([N+](=O)[O-])c1,AC50,[1],"35.5 µM [falling, single point]"
Cc1cc(C)cc(NC(=O)CSc2ccc(-c3ccco3)nn2)c1,AC50,[2],"35.5 µM [rising, single point]"
COc1ccc(N2CCN(C(c3nnnn3CCc3ccccc3)C(C)C)CC2)cc1 (stereo not drawn),AC50,[2],"35.5 µM [rising, single point]"
CCOc1ccc2c(c1)C(C)=CC(C)(C)N2,AC50,[1],"0.141 µM [falling, full curve]"
same,AC50,[2],"891 nM [falling, full curve, poor fit] and 14.1 µM [rising, single point]"
CNC(=O)COC(=O)/C=C/c1cccs1,AC50,[2],"0.316 µM [rising, full curve]"
CS(=O)(=O)c1ccc(Sc2nc3ccccc3s2)c([N+](=O)[O-])c1,AC50,[1],"35.5 µM [falling, single point]"
same,AC50,[2],"2 µM [rising, partial curve]"
CC(=O)Nc1sc2c(c1C(c1cccs1)N1CCOCC1)CCCC2 (stereo not drawn),AC50,[2],"11.2 µM [rising, partial curve]"
O=C(C1CCN(c2nnc(N3CCCC3=O)s2)CC1)N1CCN(Cc2ccc3c(c2)OCO3)CC1,AC50,[2],"11.2 µM [rising, partial curve]"
COc1cc2c(cc1OC)C(c1ccc(-c3cc(Cl)ccc3Cl)o1)=NCC2,AC50,[1],"0.355 µM [falling, full curve]"
same,AC50,[2],"0.0891 µM [falling, full curve, poor fit]"
Cc1cc(C)cc(NC(=O)c2sc3nc4n(c(=O)c3c2C)N=C(c2ccccc2)CS4)c1,AC50,[1],"0.0316 µM [rising, full curve, poor fit]"
same,AC50,[2],"12.6 µM [rising, partial curve, poor fit]"
O=C(Nc1cccc(F)c1)N1CC=C(c2ccc(Cl)cc2)CC1,AC50,[1],"12.6 µM [rising, partial curve, poor fit]"
same,AC50,[2],"22.4 µM [rising, single point]"
Nc1c(C(=O)Nc2cccc(F)c2)nnn1-c1cccc(C(F)(F)F)c1,AC50,[1],"0.0708 µM [falling, full curve, poor fit]"
same,AC50,[2],"0.794 µM [falling, full curve]"
COc1ccc(/C=N/OCC(=O)NC(c2ccccc2)c2ccccc2)cc1OC,AC50,[2],"1.26 µM [rising, full curve]"
O=C(O)c1ccc(CSc2nnc(-c3cccnc3)n2-c2ccc(Br)cc2)cc1,AC50,[1],"7.94 µM [rising, partial curve, poor fit]"
same,AC50,[2],"3.98 µM [rising, full curve]"
Cc1nc2c(c3c1[nH]c1ccccc13)C(O)CC(C)(C)C2 (stereo not drawn),AC50,[2],"35.5 µM [rising, single point]"
CCN(CC)CCNc1ccnc2cc(Cl)ccc12,AC50,[2],"7.08 µM [rising, partial curve]"
CC(=O)Nc1ccc2nc(SCC(=O)O)sc2c1,AC50,[2],"0.00398 µM [falling, full curve, poor fit]"
O=C(CSc1nnc(CNc2ccc(F)cc2)o1)c1ccccc1,AC50,[1],"0.251 µM [falling, full curve, poor fit]"
O=C(O)CSc1cc(C(=O)c2ccccc2O)cn2c(=O)c3c(-c4ccccc4)csc3nc12,AC50,[2],"20 µM [rising, single point]"
O=C(c1ccc2c(c1)OCO2)C1CCCN(C(=O)NCc2ccccc2)C1 (stereo not drawn),AC50,[1],"1 µM [rising, full curve, poor fit]"
same,AC50,[2],"1 µM [rising, full curve, poor fit]"
Cc1c(C(=O)O)cnc2cc(-c3ccc(Cl)cc3)nn12,AC50,[2],"0.708 µM [rising, full curve, poor fit]"
CC(=O)Nc1ccc(S(=O)(=O)NCC2CCC(C(=O)NC3CCCCCC3)CC2)cc1 (stereo not drawn),AC50,[1],"6.31 µM [rising, partial curve, poor fit]"
N#CCCN1CCN(C(=S)c2ccc(-c3cccc(Cl)c3)o2)CC1,AC50,[2],"14.1 µM [rising, single point]"
CCOC(=O)c1c(C)[nH]c(C(=O)CSc2nnc(CC(C)c3ccccc3)o2)c1C (stereo not drawn),AC50,[2],"15.8 µM [rising, single point]"
O=C(NCc1ccco1)C(c1cccs1)N(C(=O)C1COc2ccccc2O1)c1cccc(O)c1 (stereo not drawn),AC50,[2],"1.26 µM [rising, full curve, poor fit]"
O=C(CSc1nc2ccccc2c(=O)n1-c1ccc(Cl)cc1)N/N=C/C=C/c1ccccc1[N+](=O)[O-],AC50,[2],"0.01 µM [rising, full curve, poor fit]"
COc1ccc(/C=N/Nc2ncnc3sc4c(c23)CCCC4)cc1O,AC50,[1],"11.2 µM [rising, partial curve]"
same,AC50,[2],"14.1 µM [rising, partial curve]"
